Results published in the supplement of paper PMC12823440, “Inhibitors supercharge kinase turnover through native proteolytic circuits” (Nature, 2025).
Structures can show the parent of a compound that is named as a salt. This is one part of the list. The calls rarely recur for the same compound in another form.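 Kinases were expressed as nanoluciferase fusions in K562 cells and luminescence was read every 4 h between 2 and 18 h as percent of control, DMSO set to 100% and a positive control to 0%. A time point counts as decreased when the signal drops significantly (2 sigma). The hit call is the authors' own, does not follow from the count of time points alone, and its rule is not shown.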

Chains of the proteins cited; added tags and fusions are not shown. Lines headed by an entry give the natural chain unless they say otherwise; changes in a name come on top.
UniProt Q9UQM7, whole entry: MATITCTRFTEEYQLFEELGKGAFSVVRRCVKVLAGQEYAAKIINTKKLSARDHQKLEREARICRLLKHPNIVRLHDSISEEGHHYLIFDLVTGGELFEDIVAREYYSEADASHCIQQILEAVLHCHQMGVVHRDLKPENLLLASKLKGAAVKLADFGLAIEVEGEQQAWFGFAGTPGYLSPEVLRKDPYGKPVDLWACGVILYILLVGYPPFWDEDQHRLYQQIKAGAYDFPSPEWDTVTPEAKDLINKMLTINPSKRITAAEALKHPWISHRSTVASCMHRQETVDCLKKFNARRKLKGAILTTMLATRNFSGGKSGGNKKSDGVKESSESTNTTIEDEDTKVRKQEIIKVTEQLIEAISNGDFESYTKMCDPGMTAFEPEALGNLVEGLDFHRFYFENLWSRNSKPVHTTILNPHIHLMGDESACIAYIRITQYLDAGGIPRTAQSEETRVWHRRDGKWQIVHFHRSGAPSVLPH
UniProt Q13555: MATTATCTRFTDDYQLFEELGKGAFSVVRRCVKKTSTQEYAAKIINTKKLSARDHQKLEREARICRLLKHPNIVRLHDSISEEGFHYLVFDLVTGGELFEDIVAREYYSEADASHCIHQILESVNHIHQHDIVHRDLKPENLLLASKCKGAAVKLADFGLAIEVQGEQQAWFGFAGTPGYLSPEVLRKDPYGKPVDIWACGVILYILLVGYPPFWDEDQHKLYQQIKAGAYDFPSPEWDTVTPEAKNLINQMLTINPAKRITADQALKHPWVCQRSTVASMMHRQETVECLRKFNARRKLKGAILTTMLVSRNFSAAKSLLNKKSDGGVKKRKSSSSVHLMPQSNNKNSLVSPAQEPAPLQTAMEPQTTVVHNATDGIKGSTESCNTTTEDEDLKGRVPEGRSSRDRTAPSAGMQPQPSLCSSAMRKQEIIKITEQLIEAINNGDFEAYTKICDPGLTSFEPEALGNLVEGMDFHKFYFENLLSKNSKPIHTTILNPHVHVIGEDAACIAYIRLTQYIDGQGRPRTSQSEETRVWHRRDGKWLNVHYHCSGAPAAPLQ
UniProt Q15131: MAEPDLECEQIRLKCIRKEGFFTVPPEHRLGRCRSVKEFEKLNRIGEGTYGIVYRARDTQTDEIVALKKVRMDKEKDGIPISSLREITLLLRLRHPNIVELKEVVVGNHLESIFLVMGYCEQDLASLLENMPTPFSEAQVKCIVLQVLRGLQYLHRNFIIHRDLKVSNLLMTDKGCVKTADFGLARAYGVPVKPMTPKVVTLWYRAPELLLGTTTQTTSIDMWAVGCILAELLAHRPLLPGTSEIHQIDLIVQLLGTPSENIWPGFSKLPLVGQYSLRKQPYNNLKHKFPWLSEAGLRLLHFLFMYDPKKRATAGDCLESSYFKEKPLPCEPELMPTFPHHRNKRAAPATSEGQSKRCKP
UniProt Q00526: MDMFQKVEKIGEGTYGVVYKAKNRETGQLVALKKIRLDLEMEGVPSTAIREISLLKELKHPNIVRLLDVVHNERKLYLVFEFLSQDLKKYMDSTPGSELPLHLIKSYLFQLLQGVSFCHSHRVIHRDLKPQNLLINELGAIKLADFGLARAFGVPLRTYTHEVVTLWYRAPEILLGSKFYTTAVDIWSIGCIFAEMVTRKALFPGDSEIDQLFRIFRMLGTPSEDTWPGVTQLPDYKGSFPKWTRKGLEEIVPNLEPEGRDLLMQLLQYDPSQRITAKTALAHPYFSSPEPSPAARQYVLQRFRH
UniProt Q00535, whole entry, looked up: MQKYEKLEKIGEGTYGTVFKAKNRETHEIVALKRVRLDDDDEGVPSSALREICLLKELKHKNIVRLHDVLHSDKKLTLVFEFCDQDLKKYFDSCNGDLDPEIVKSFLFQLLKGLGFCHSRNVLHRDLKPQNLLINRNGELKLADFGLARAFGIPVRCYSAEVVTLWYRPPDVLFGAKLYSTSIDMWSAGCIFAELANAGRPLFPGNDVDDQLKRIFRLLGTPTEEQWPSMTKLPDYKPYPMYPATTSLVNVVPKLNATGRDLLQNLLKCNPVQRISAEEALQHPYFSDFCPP
UniProt P07333, whole entry: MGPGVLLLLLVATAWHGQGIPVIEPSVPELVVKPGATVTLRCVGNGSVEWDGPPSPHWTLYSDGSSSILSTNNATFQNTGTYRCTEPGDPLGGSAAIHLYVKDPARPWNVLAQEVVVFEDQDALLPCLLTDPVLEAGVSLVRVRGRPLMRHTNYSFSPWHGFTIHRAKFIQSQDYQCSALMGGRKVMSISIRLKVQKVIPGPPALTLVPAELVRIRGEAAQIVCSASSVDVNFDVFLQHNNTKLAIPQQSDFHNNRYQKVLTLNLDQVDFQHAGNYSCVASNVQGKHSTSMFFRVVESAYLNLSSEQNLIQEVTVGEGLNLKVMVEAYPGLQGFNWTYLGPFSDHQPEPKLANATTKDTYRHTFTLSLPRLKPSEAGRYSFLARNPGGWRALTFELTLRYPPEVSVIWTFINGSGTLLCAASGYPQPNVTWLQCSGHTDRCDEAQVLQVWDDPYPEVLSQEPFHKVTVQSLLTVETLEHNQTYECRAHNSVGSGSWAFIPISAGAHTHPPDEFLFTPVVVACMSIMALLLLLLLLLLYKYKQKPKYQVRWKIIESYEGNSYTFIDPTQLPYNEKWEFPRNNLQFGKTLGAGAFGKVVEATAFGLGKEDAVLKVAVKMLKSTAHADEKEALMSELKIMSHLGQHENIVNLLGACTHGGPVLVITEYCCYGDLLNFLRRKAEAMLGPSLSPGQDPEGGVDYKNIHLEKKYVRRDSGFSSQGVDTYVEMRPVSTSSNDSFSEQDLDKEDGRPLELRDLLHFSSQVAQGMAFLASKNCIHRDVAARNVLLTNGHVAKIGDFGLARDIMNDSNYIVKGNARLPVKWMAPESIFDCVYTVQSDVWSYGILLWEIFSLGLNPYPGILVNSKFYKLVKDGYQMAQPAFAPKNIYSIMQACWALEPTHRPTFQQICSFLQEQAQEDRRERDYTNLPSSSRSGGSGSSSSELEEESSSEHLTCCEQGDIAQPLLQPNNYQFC
UniProt P41240: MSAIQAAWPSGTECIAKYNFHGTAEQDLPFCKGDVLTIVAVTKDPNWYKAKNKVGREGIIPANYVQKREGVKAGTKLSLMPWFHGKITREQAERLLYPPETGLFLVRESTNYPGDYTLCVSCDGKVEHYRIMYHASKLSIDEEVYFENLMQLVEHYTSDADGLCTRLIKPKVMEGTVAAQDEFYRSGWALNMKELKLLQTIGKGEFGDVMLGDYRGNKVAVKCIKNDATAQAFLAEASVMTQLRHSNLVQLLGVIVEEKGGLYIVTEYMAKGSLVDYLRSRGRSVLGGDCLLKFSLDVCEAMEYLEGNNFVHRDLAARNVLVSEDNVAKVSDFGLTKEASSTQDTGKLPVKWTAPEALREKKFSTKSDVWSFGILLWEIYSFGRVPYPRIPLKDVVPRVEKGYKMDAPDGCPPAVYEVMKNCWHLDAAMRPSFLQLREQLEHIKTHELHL
UniProt P48729: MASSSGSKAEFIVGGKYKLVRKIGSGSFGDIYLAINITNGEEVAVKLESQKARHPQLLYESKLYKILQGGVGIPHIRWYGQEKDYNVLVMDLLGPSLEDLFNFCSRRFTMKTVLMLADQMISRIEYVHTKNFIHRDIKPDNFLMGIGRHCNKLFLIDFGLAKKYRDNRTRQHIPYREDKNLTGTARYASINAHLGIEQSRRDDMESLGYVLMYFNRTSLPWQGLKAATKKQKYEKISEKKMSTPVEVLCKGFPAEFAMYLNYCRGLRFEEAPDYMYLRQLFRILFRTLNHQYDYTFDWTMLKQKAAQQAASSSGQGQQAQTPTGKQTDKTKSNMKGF
UniProt P48730: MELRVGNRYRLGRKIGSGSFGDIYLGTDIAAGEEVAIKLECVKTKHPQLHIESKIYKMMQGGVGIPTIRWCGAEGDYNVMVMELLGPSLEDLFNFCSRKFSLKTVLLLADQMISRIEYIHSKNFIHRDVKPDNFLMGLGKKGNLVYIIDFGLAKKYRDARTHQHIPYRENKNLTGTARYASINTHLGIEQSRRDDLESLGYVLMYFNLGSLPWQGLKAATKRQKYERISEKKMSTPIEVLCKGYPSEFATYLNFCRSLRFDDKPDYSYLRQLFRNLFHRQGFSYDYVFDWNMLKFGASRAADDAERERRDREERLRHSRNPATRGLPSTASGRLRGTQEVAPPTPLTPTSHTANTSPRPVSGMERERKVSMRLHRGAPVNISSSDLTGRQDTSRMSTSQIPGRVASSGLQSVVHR
UniProt Q08345: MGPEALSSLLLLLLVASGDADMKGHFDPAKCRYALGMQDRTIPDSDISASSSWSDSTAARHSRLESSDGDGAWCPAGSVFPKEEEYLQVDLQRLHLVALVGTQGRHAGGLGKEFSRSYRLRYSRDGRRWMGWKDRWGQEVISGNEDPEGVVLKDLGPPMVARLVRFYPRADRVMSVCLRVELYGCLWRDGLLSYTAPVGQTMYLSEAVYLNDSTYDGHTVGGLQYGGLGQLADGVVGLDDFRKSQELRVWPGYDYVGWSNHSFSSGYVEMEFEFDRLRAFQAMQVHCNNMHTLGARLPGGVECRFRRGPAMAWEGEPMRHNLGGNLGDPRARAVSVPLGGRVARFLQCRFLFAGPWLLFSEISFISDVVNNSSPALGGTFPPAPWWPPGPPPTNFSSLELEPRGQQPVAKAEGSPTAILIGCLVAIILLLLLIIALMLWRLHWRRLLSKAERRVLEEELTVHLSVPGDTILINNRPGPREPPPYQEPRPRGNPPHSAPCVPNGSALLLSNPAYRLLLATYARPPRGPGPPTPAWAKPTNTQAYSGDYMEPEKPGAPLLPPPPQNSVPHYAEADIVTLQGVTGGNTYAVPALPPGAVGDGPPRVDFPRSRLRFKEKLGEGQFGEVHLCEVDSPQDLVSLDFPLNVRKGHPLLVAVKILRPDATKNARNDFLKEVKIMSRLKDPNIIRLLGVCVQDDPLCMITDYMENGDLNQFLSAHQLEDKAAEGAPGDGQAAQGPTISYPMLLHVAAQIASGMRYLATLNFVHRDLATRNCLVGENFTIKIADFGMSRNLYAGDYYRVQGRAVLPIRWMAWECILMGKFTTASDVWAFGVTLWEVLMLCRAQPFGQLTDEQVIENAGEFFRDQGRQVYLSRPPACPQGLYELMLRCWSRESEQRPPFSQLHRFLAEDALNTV
UniProt Q9Y463, whole entry, looked up: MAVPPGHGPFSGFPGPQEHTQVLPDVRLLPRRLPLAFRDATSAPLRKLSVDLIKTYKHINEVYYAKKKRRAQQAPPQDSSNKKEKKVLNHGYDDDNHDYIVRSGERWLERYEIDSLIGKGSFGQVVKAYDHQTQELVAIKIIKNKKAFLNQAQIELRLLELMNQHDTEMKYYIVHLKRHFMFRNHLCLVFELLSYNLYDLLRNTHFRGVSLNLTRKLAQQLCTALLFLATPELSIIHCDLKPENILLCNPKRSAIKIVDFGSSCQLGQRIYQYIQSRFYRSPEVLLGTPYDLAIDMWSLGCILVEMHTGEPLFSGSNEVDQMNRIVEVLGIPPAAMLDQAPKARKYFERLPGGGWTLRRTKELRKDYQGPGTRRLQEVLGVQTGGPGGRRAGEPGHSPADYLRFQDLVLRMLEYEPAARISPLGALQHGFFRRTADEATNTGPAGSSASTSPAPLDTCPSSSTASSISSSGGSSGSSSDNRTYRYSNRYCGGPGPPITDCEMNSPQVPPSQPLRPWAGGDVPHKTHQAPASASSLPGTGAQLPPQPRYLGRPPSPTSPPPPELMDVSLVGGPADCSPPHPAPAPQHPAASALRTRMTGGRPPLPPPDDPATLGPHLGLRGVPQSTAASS
UniProt Q92630: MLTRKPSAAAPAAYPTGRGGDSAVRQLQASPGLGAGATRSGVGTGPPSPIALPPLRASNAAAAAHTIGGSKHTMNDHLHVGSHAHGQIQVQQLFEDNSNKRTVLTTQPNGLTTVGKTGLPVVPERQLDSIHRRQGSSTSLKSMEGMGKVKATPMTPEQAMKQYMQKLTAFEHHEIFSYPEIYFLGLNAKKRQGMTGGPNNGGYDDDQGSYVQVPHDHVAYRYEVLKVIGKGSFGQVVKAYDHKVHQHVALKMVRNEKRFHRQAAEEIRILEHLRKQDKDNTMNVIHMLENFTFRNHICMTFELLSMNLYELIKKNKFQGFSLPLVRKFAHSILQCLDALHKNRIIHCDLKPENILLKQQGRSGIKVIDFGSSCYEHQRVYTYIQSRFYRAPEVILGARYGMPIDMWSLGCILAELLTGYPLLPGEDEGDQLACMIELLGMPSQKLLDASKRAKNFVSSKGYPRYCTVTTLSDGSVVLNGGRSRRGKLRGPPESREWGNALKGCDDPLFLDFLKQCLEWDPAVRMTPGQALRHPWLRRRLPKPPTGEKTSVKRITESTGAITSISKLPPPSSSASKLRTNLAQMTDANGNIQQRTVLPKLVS

Tests used:
Assay in all cases: number of time points (of 5) at which kinase-Nluc abundance scored as decreased, DMSO-normalised (count); higher = more persistent destabilization
Conditions in all cases: K562; 2-18 h
CAMK2A = CAMK2A (UniProt Q9UQM7)
CAMK2G = CAMK2G (UniProt Q13555)
CDK10 = CDK10 (UniProt Q15131)
CDK2 = CDK2 (UniProt P24941)
CDK3 = CDK3 (UniProt Q00526)
CDK5 = CDK5 (UniProt Q00535)
CDK6 = CDK6 (UniProt Q00534)
CHEK2 = CHEK2 (UniProt O96017)
CSF1R = CSF1R (UniProt P07333)
CSK = CSK (UniProt P41240)
CSNK1A1 = CSNK1A1 (UniProt P48729)
CSNK1D = CSNK1D (UniProt P48730)
DDR1 = DDR1 (UniProt Q08345)
DYRK1B = DYRK1B (UniProt Q9Y463)
DYRK2 = DYRK2 (UniProt Q92630)
EGFR = EGFR (UniProt P00533)
EGFR_G719S = EGFR_G719S (UniProt P00533)
EGFR_G719S_T790M = EGFR_G719S_T790M (UniProt P00533)
EGFR_L718V = EGFR_L718V (UniProt P00533)
EGFR_L858R = EGFR_L858R (UniProt P00533)

| SMILES | number of time points (CAMK2A) | number of time points (CAMK2G) | number of time points (CDK10) | number of time points (CDK2) | number of time points (CDK3) | number of time points (CDK5) | number of time points (CDK6) | number of time points (CHEK2) | number of time points (CSF1R) | number of time points (CSK) | number of time points (CSNK1A1) | number of time points (CSNK1D) | number of time points (DDR1) | number of time points (DYRK1B) | number of time points (DYRK2) | number of time points (EGFR) | number of time points (EGFR_G719S) | number of time points (EGFR_G719S_T790M) | number of time points (EGFR_L718V) | number of time points (EGFR_L858R) |
| --- | --- | --- | --- | --- | --- | --- | --- | --- | --- | --- | --- | --- | --- | --- | --- | --- | --- | --- | --- | --- |
| Cn1ncc(Cl)c1-c1cc(C(=O)N[C@H](CN)Cc2ccc(F)c(F)c2)oc1Cl [Uprosertib] (10 µM) | 0 | 0 | 0 | 0 | 0 | 0 | 0 | 0 | 0 | 0 | 0 | 0 | 3 | 0 | 0 | 0 | 0 | 0 | 0 | 0 |
| CN(C)C(=O)Cn1cc(-c2ccc(-c3cncc4ccccc34)cc2)cn1 (10 µM) | 0 | 0 | 0 | 0 | 0 | 0 | 0 | 0 | 0 | 0 | 0 | 0 | 0 | 0 | 0 | 0 | 0 | 0 | 0 | 0 |
| CCc1cc2c(cc1N1CCC(N3CCOCC3)CC1)C(C)(C)c1[nH]c3cc(C#N)ccc3c1C2=O [Alectinib (Hydrochloride)] (2 µM) | 0 | 0 | 0 | 0 | 0 | 0 | 0 | 0 | 0 | 0 | 0 | 0 | 0 | 0 | 0 | 0 | 0 | 0 | 0 | 0 |
| CC#CC(=O)Nc1ccc2ncnc(Nc3cccc(Br)c3)c2c1 (10 µM) | 0 | 0 | 0 | 0 | 0 | 1 | 0 | 0 | 1 | 0 | 0 | 0 | 0 | 0 | 0 |  |  |  |  |  |
| C[C@]1(O)CCN(c2nc(N3C[C@H](O)[C@@H](O)C3)cc(C(F)(F)F)c2C#N)C1 (10 µM) | 0 | 0 | 0 | 0 | 0 | 0 | 0 | 0 | 0 | 0 | 0 | 0 | 0 | 0 | 0 | 0 | 0 | 0 | 0 | 0 |
| COc1cc2c(cc1OC)CN(S(=O)(=O)c1ccc(OC)c(N3CCN(C(=O)c4ccc(F)cc4C(F)(F)F)CC3)c1)CC2 (10 µM) | 0 | 0 | 0 | 0 | 0 | 0 | 0 | 0 | 0 | 0 | 0 | 0 | 0 | 0 | 0 | 0 | 0 | 0 | 0 | 0 |
| CCS(=O)(=O)c1ncc(Cl)c(C(=O)N(Cc2ccc(Cl)cc2)Cc2ccco2)n1 (2.5 µM) | 0 | 0 | 0 | 0 | 0 | 0 | 0 | 0 | 0 | 0 | 0 | 0 | 1 | 3 | 0 | 0 | 0 | 0 | 0 | 0 |
| NC(=O)c1nc(Nc2ccccc2)sc1NC(=O)C1CCCCC1 (10 µM) | 0 | 0 | 0 | 0 | 0 | 0 | 0 | 0 | 0 | 0 | 0 | 0 | 0 | 0 | 0 | 0 | 0 | 0 | 0 | 0 |
| C[C@@H](c1ccc(-c2ccccc2)c(F)c1)c1cc(NC(=N)N2CCOCC2)on1 [Rimacalib] (10 µM) | 0 | 0 | 0 | 0 | 0 | 0 | 0 | 0 | 0 | 0 | 0 | 0 | 0 | 0 | 0 | 0 | 0 | 0 | 0 | 0 |
| CCNc1nc(Nc2cc(F)c(C(=O)N3CCOCC3)cc2OC)ncc1C(F)(F)F [GNE-7915 (tosylate)] (10 µM) | 0 | 0 | 0 | 0 | 0 | 0 | 0 | 0 | 0 | 0 | 0 | 0 | 0 | 0 | 0 | 0 | 0 | 0 | 0 | 0 |
| Oc1cc2c(cc1O)C(Cc1cccc3ccccc13)NCC2 (stereo not given) (10 µM) | 0 | 0 | 0 | 0 | 0 | 0 | 0 | 0 | 0 | 0 | 0 | 0 | 0 | 0 | 0 | 0 | 0 | 0 | 0 | 0 |

Single entries from the entries so far:
For number of time points (EGFR_G719S_T790M), CN(C)C(=O)Cn1cc(-c2ccc(-c3cncc4ccccc34)cc2)cn1 (10 µM) has 0
For number of time points (CAMK2G), C[C@]1(O)CCN(c2nc(N3C[C@H](O)[C@@H](O)C3)cc(C(F)(F)F)c2C#N)C1 (10 µM) has 0
